The other results are listed elsewhere or left out.
Tested on: T1, CTL2-GFP (C. trachomatis L2/434/Bu, GFP-expressing)
T1 construct: L2/434/Bu, GFP-expressing
Set-up: species or system HeLa; Intracellular C. trachomatis growth in HeLa cells, bulk GFP fluorescence relative to DMSO
Conditions: bulk GFP, single well; 28.5 h, 10 µM; inhibitor

Row | Compound | % of control remaining [%]
1 | CNC(=O)c1sc2ccccc2c1C1CN(Cc2cn(C)c3ccc(F)cc23)CCO1 (centres unmarked) [CBK285868] | 69.4551
2 | Cc1cc(C)nc(NC(=O)C(C)Oc2ccc(Cl)cc2C)n1 (centres unmarked) [CBK268111] | 107.787
3 | Cc1cc(-n2c(C)cc(C(=O)CSc3n[nH]c(=O)n3CC3CCCO3)c2C)no1 (centres unmarked) [CBK295589] | 112.573
4 | c1ccc(CNC2(Cc3cc(-c4ccccn4)on3)COC2)cc1 [CBK289643] | 105.702
5 | CCn1nncc1CNC1CCc2[nH]c3ccc(C)cc3c2C1 (centres unmarked) [CBK304749] | 148.902
6 | CC(=O)Nc1ccc(/C(C)=N/Nc2nc(N3CCCC3)nc(N3CCCC3)n2)cc1 [CBK021877] | 107.91
7 | O=C(O)c1ccc(S(=O)(=O)c2ccc3c(c2)C(=O)N(NC(=O)c2ccc(O)cc2)C3=O)cc1 [CBK264229] | 133.878
8 | c1ccc2c(CCN3CCN(c4nccnc4OC4CCCCC4)CC3)c[nH]c2c1 [CBK082847T] | 112.164
9 | CCCNC(=O)Cn1nc(C)n2c(cc3ccsc32)c1=O [CBK284061] | 136.168
10 | CCN1CCC2CN(CCCC(c3ccc(F)cc3)c3ccc(F)cc3)CCN2C1=O (centres unmarked) [CBK024996] | 102.125
11 | Cc1ccc2[nH]c(Cc3ccc(NC(=O)c4nc5ccccc5n(C)c4=O)cc3)nc2c1 [CBK285802] | 152.806
12 | CCCCSc1nc(N)cc(N2CCCN(C(=O)C3CCCO3)CC2)n1 (centres unmarked) [CBK307209] | 93.9399
13 | CC(C)C(=O)N1CC2(CCN(CCc3c[nH]c4ccccc34)CC2)c2ccccc21 [CBK126725] | 121.028
14 | O=C(Cn1cnc2c(F)cc(Br)cc2c1=O)N1CCOC2CCCCC21 (centres unmarked) [CBK305229] | 100.791
15 | CC1(C)CC(=O)C2=C(C1)Nc1nc(SCc3ccc([N+](=O)[O-])cc3)[nH]c(=O)c1C2c1cccnc1 (centres unmarked) [CBK266096] | 194.283
16 | CN(C(=O)CSc1nc2ccccc2nc1Cc1ccc(Cl)cc1)C1CCCCC1 [CBK294411] | 87.6215
17 | COc1ccc(C(NC(=O)c2ccc(C(C)N3CCOCC3)o2)c2ccccc2)cc1 (centres unmarked) [CBK285748] | 86.3082
18 | O=C1CCC(=O)N1CCOc1nccnc1OC1CCN(CCc2c[nH]c3ccccc23)CC1 [CBK084355] | 108.635
19 | Cc1ccc2c(c1)oc(=O)n2CCNC(=O)CC1c2ccccc2Oc2ccccc21 [CBK286194] | 112.114
20 | O=C1NC2(CCSC2)C(=O)N1Cc1noc(-c2cccs2)n1 (centres unmarked) [CBK306225] | 169.787
21 | CN1CCN(c2ccc3ccn(S(=O)(=O)c4ccccc4Br)c3n2)CC1 [CBK200019C] | 94.2911
22 | NC1CC(c2cc(NCc3cn4ccccc4n3)ncn2)C1 (centres unmarked) [CBK306631] | 104.705
23 | COc1ccccc1NC(=O)c1sc2nc(N3CCOCC3)c3c(c2c1N)CCCC3 [CBK269247] | 96.6458
24 | COC(=O)CNC(=O)c1ccc(S(=O)(=O)N2CCOCC2)cc1 [CBK264873] | 121.498
25 | CS(=O)(=O)c1ccc(CN2C(=O)CC3(CCN(C(=O)Cc4cccs4)CC3)C2=O)cc1 [CBK155013] | 130.541
26 | CCCC(=O)Nc1ccc(OCc2nnc(C)o2)c(C(C)=O)c1 [CBK305943] | 84.4927

Row | Compound | % of control remaining [%]
27 | O=C(CN(c1cccc(Cl)c1)S(=O)(=O)c1ccccc1)NN=C1CCCCC1 [CBK262470] | 99.0267
28 | Cc1cc(C)n2nc(C(=O)NCc3ccccn3)cc2n1 [CBK269015] | 80.0955
29 | CCNc1ncnc2c1oc1ccccc12 [CBK263298] | 115.227
30 | COc1cc(C(=O)N2CCC3(CC2)CC(=O)c2ccc(C)cc2O3)ccc1O [CBK166045] | 176.655
31 | CCN(CC)C(=O)C1CCCN(C(=O)NCCCSC)C1 (centres unmarked) [CBK156118] | 89.1322
32 | CCOc1ccccc1-n1c(CCC(=O)O)ccc1-c1cccs1 [CBK264794] | 127.078
33 | CCOC(=O)C1CCN(Cn2nc(-c3cccs3)oc2=S)CC1 [CBK295165] | 130.535
34 | COc1ccc([C@H]2CN(C(=O)c3ccccc3)[C@@H]3CCN(Cc4ccccc4C)C[C@H]23)cc1 [CBK285583] | 59.6086
35 | CCOC(=O)CN1N=C(C)C(Cc2c(Cl)cccc2Cl)(OC)C1=O (centres unmarked) [CBK112646] | 105.291
36 | Nc1cccc(-c2cn(C[C@H]3CC4CCN3C[C@@H]4C(=O)NC3CCCCC3)nn2)c1 (some centres unmarked) [CBK289083] | 138.624
37 | CS(=O)(=O)NCCCNc1ccc(C(F)(F)F)cc1[N+](=O)[O-] [CBK263741] | 118.232
38 | CS(=O)(=O)c1ccc(-c2c[nH]c([C@@H]3COCCN3Cc3ccc(C(=O)O)cc3)n2)cc1 [CBK289306] | 129.537
39 | CSCCCNC(=O)N1CCCC(CO)C1 (centres unmarked) [CBK156031] | 111.33
40 | COc1ccc(NC(=O)c2nn(-c3nc4ccccc4o3)c3ccccc23)cc1 [CBK048492] | 104.304
41 | CCCCc1c(C)nc2ccc(OC)cc2c1SCCC(=O)O [CBK263888] | 100
42 | NC(=O)c1cc(C(=O)c2ccccc2F)c[nH]1 [CBK017284] | 103.705
43 | Cn1c(CNC(=O)c2ncoc2-c2cccs2)nc2ccccc21 [CBK283985] | 121.297
44 | Cc1nc(C)c(C(=O)NCc2cccnc2N(C)C2CCCCC2)s1 [CBK306885] | 145.246
45 | NC(=S)NNC(=O)Nc1ccccc1 [CBK261595] | 105.399
46 | O=C(Nc1ccc(NC(=O)c2cc(O)nc3ccccc23)cc1)c1ccccc1 [CBK269722] | 125.64
47 | Nc1cc(NC(=O)c2cccc(C(=O)Nc3ccc(Cl)c(N)c3)c2)ccc1Cl [CBK261379] | 102.431
48 | O=C(N/N=C\c1ccc([N+](=O)[O-])o1)c1nc(-c2ccccc2)cc(-c2ccccc2)n1 [CBK261958] | 4.779
49 | CC1(C)CC(=O)c2sc(NC(=O)c3ccc(OC(F)(F)F)cc3)nc2C1 [CBK144102] | 111.971
50 | CC1CC(NC(=S)NCc2csc3ccccc23)CC(C)(C)C1 (centres unmarked) [CBK013824] | 126.014
51 | COc1ccc(Cl)cc1/C=C/C(=O)NCc1ccc(C(=O)O)cc1 [CBK286908] | 150.674
52 | Fc1ccc(CSc2nc3ccccc3nc2C(F)(F)F)cc1 [CBK107199] | 100

Shown as tab-separated lines: entries from further up.
Row	Compound	% of control remaining [%]
1	CNC(=O)c1sc2ccccc2c1C1CN(Cc2cn(C)c3ccc(F)cc23)CCO1 (centres unmarked) [CBK285868]	69.4551
4	c1ccc(CNC2(Cc3cc(-c4ccccn4)on3)COC2)cc1 [CBK289643]	105.702
5	CCn1nncc1CNC1CCc2[nH]c3ccc(C)cc3c2C1 (centres unmarked) [CBK304749]	148.902
6	CC(=O)Nc1ccc(/C(C)=N/Nc2nc(N3CCCC3)nc(N3CCCC3)n2)cc1 [CBK021877]	107.91
11	Cc1ccc2[nH]c(Cc3ccc(NC(=O)c4nc5ccccc5n(C)c4=O)cc3)nc2c1 [CBK285802]	152.806
12	CCCCSc1nc(N)cc(N2CCCN(C(=O)C3CCCO3)CC2)n1 (centres unmarked) [CBK307209]	93.9399
17	COc1ccc(C(NC(=O)c2ccc(C(C)N3CCOCC3)o2)c2ccccc2)cc1 (centres unmarked) [CBK285748]	86.3082
22	NC1CC(c2cc(NCc3cn4ccccc4n3)ncn2)C1 (centres unmarked) [CBK306631]	104.705
25	CS(=O)(=O)c1ccc(CN2C(=O)CC3(CCN(C(=O)Cc4cccs4)CC3)C2=O)cc1 [CBK155013]	130.541
28	Cc1cc(C)n2nc(C(=O)NCc3ccccn3)cc2n1 [CBK269015]	80.0955
29	CCNc1ncnc2c1oc1ccccc12 [CBK263298]	115.227
30	COc1cc(C(=O)N2CCC3(CC2)CC(=O)c2ccc(C)cc2O3)ccc1O [CBK166045]	176.655
32	CCOc1ccccc1-n1c(CCC(=O)O)ccc1-c1cccs1 [CBK264794]	127.078
33	CCOC(=O)C1CCN(Cn2nc(-c3cccs3)oc2=S)CC1 [CBK295165]	130.535
34	COc1ccc([C@H]2CN(C(=O)c3ccccc3)[C@@H]3CCN(Cc4ccccc4C)C[C@H]23)cc1 [CBK285583]	59.6086
35	CCOC(=O)CN1N=C(C)C(Cc2c(Cl)cccc2Cl)(OC)C1=O (centres unmarked) [CBK112646]	105.291
37	CS(=O)(=O)NCCCNc1ccc(C(F)(F)F)cc1[N+](=O)[O-] [CBK263741]	118.232
38	CS(=O)(=O)c1ccc(-c2c[nH]c([C@@H]3COCCN3Cc3ccc(C(=O)O)cc3)n2)cc1 [CBK289306]	129.537
44	Cc1nc(C)c(C(=O)NCc2cccnc2N(C)C2CCCCC2)s1 [CBK306885]	145.246
45	NC(=S)NNC(=O)Nc1ccccc1 [CBK261595]	105.399
48	O=C(N/N=C\c1ccc([N+](=O)[O-])o1)c1nc(-c2ccccc2)cc(-c2ccccc2)n1 [CBK261958]	4.779

(next part)

Row | Compound | % of control remaining [%]
53 | O=C(Cc1cccc(F)c1)N1CCC(O)(c2cccnc2F)CC1 [CBK284362] | 107.3
54 | Cn1c(SCC(=O)Nc2ccc(Br)cc2C(F)(F)F)nnc1-c1ccncc1 [CBK265905] | 119.915
55 | COC(=O)c1cccc(Oc2nc(OC)cc(OC)n2)c1 [CBK092219] | 100.726
56 | CCn1ncc(CN2CCN(C(=S)Nc3ccccc3C(F)(F)F)CC2)c1C [CBK266968] | 170.344
57 | COc1cc(-c2nc(N)cc3ccccc23)cc(OC)c1OC [CBK085726] | 86.9063
58 | COc1cc(/C=N/NC(=O)c2ccncc2)ccc1OC(=O)c1cccs1 [CBK262278] | 87.7817
59 | NC(=S)Nn1c(CCC(=O)O)ccc1-c1ccccc1 [CBK265942] | 119.27
60 | Nc1ccc(CCNC(=O)c2cnc(-c3cccc(C(F)(F)F)c3)c(-c3ccncc3)c2)cc1 [CBK037580] | 237.281
61 | Cc1ccc(OC(C)c2nc(-c3nonc3N)no2)cc1C (centres unmarked) [CBK025698] | 105.773
62 | Cc1ccc(CS(=O)(=O)N2CCC3(CC2)CNC(=O)C3)cc1 [CBK283344] | 113.382
63 | COc1ccccc1CNC(=O)c1cnc2scc(C)n2c1=O [CBK287293] | 89.4875
64 | O=C(c1ccccc1-n1cccc1)N1CCCC1 [CBK149608] | 107.685
65 | CC(C)N1CC[C@H]2CN(C(=O)CCC(=O)O)CC[C@H]2CC1=O [CBK288789] | 122.623
66 | Clc1cccc(CNc2cncc(-c3cccs3)n2)c1 [CBK065609] | 95.5357
67 | CN(C)CCNC(=O)Cn1c(-c2ccc(F)cc2)cc2cccnc21 [CBK284820] | 83.2915
68 | Cc1c(C(=O)O)sc(S(=O)(=O)N2CCN(C(=O)Cc3ccccc3)CC2)c1C(=O)O [CBK297148] | 103.133
69 | CN1CCN(NC(=O)c2cccc(COc3ccccc3Cl)c2)CC1 [CBK265765] | 135.61
70 | CCOc1cc(F)ccc1NC(=O)CC1CCN(c2nc(C)cc(C)n2)CC1 [CBK285958] | 102.204
71 | O=C1CN(C(=O)NCC2CCCCC2)CCN1 [CBK155854] | 113.102
72 | Cc1cc(/C=C(/C#N)c2ccc([N+](=O)[O-])cc2)c(C)n1-c1ccc(S(N)(=O)=O)cc1 [CBK266737] | 135.731
73 | CN(Cc1ccc(-c2ccc(CO)cc2)nc1)C1CCN(C(=O)OC(C)(C)C)CC1 [CBK173453] | 126.132
74 | CC(C)(C)C(=O)N1CCc2c([nH]c3ccccc23)C12CCNC2 (centres unmarked) [CBK059462] | 122.191
75 | CC1(C)Cc2c(sc(NC(=O)c3ccccc3Cl)c2C(=O)O)CO1 [CBK126806] | 93.817
76 | O=C1CN(C(=O)c2cc(-c3ccncc3)nc3ccccc23)CCN1 [CBK304370] | 104.82
77 | Cn1c(O)c(CCNc2cc(C3CCOC3)ncn2)cnc1=O (centres unmarked) [CBK307648] | 76.1679

Source: PMC12040169 (PLOS Biology, 2025)
